Percent effect of library compounds

Mtb glucose medium: 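Whole-cell growth test on Mycobacterium tuberculosis, read after 3 days in glucose-containing 7H9 medium; the read-out is not stated. Tested at 500 µM. Direction is inferred from retests: higher values go with more growth inhibition. Size under these conditions: about 18,000 compounds, about 1,400 of them at 50% or above in at least one test.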
Mtb cholesterol medium: 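Whole-cell growth test on Mycobacterium tuberculosis, read after 4 days in a medium based on cholesterol and the lipid DPPC; the read-out is not stated. Concentration: 500 µM. The record gives no direction; compounds that gave an IC50 in retests scored well above the rest, so higher reads as more growth inhibition. About 18,000 compounds were tested under these conditions; 5% (about 900) showed 50% or more at least once.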

Each number is a percent effect as filed. The controls that fix the scale are not given in the record; negative values are as filed. This is an unselected part of the compounds tested.

structure,Mtb glucose medium,Mtb cholesterol medium
Cc1cccc(NC(=O)NCCCn2ccnc2)n1,18.64,10.49
COc1ccc(CN(C)C2CCSCC2)cn1,-7.057,24.31
CN(C)c1nc(N)nc(CN2CCSCC2)n1,-2.439,-10.45
CCN1CCN(c2cc(C)nc3ncnn23)CC1,-5.935,-7.025
COCCNC(=O)CCc1ccc(F)c(F)c1,33.6,21.28
COCC(C)NC(=O)CNc1ccc(OC)c(Br)c1 (stereo not given),73.1,74.64
CCSc1cc(C(=O)N2CC[S+]([O-])CC2)ccn1,22.09,9.259
COc1cccc(N2CCNCC2C)c1 (stereo not given),79.3,5.558
NC1CCn2cncc21 (stereo not given),1.26,-2.366
O=C(NCC1CCN(C2CC2)C1)c1cccs1 (stereo not given),36.42,27.16
COc1ccccc1CCC(=O)Nc1nncn1C,-7.176,0.3047
CN(C)[C@@H]1CN(C(=O)c2ccncc2F)C[C@H]1CO,-4.483,9.187
CS(=O)(=O)N[C@@H]1CCOC[C@H]1OCc1cscn1,6.817,11.37
C=C(Br)Cn1c(CO)nc2ccccc21,35.34,69.03
Cc1nc(C)c(C[S+]([O-])CC(=O)N2CCC(C)CC2)s1 (stereo not given),4.896,-4.921
NS(=O)(=O)N1CCN(Cc2ccccc2)CC1,4.382,14.57
CCn1ccc(C(=O)NCCSC(F)(F)F)cc1=O,9.797,8.844
Cc1noc(C)c1C[S+]([O-])Cc1ccccn1 (stereo not given),5.779,-2.388
CNC(=O)c1sc(CN2CCOCC2)nc1C,-16.6,-30.19
O=C(NCc1c[nH]nn1)C1(Cc2ccccc2)CCC1,16.7,-10.47
Cn1c(CN)nc2cc(F)ccc21,-17.81,-14.03
CC(C)c1cc(N)[nH]n1,55.18,19.3
CS(=O)(=O)CC1(CNCc2ccncc2)CC1,17.65,8.892
CC(C)c1ccc(-c2nnn(CC(=O)N(C)C)n2)cc1,2.983,-8.704
COC(=O)C(C)(C)CNCc1ccc(C#N)o1,8.773,17.77
c1cnn(CCN2CCCC2Cn2cccn2)c1 (stereo not given),4.229,-23.06
CC(=O)N1CCC(Cc2ccc(C(N)=O)cc2)CC1,4.55,4.989
O=C(OCC1CC1)C1=CN2CCS(=O)(=O)N=C2C=C1,11,-0.8877
COC(=O)C1CCN(S(=O)(=O)Cc2ccccc2)CC1,0.1494,3.64
C[C@H](CCO)NC1CCC2(CC1)OCCO2,-11.11,-2.938
CS(=O)(=O)c1nccn1CCCN1CCCCC1,-3.998,-8.389
O=C(CC1COCCN1Cc1ccon1)c1cccs1 (stereo not given),55.18,10.48
CN(C)c1ccnc(C(=O)NC(C)(C)CC(N)=O)c1,14.77,-1.585
Cc1c[nH]c(CNC(=O)CCOc2ccccc2)n1,32.1,14.9
Cc1cc(OCCN2CCOCC2)nc2ccccc12,0.1532,8.289
CCOC1CCCN(C(=O)c2ccc(C)[nH]c2=O)C1 (stereo not given),9.908,-0.6053
CCN1CCN(CC(C)CNc2ccncc2Cl)CC1 (stereo not given),5.294,1.7
CNC(=O)c1cc(OC2CCCNC2)ccn1 (stereo not given),2.831,0.6225
CN(C)Cc1ccc2ccccc2n1,-3.882,-3.945
CCC[C@H]1CN(C(=O)c2cnc(C)nc2)C[C@@H]1N,7.465,1.694
O=C(CN1CCOCC1)N1CCCC(c2nnc[nH]2)C1 (stereo not given),-7.374,-18.16
Cc1ccc(CN)n1C,65.5,75.58

For reference, 4 entries once more:

- Cc1cccc(NC(=O)NCCCn2ccnc2)n1 | Mtb glucose medium: 18.64%; Mtb cholesterol medium: 10.49%
- Cc1nc(C)c(C[S+]([O-])CC(=O)N2CCC(C)CC2)s1 (stereo not given) | Mtb glucose medium: 4.896%; Mtb cholesterol medium: -4.921%
- O=C(CC1COCCN1Cc1ccon1)c1cccs1 (stereo not given) | Mtb glucose medium: 55.18%; Mtb cholesterol medium: 10.48%
- CN(C)c1nc(N)nc(CN2CCSCC2)n1 | Mtb glucose medium: -2.439%; Mtb cholesterol medium: -10.45%

From ChEMBL document CHEMBL3988442, “University of Dundee, Small-Polar-MMV Screening Library” (2021).